Results taken from PubChem BioAssay AID1794845 (National Center for Advancing Translational Sciences (NCATS), 2023).
Among all 6,900 compounds or so, fewer than 10 were called active. The call rests on the fitted dose curve; in most records, active means well fitted curve in the direction sought with a large enough effect; inconclusive means small, poorly fitted or top-dose-only effect, or another doubt; inactive means no such curve, though single readings can be large or run the other way. The list shows a part of the results.

Chains of the proteins cited; added tags and fusions are not shown. Lines headed by an entry give the natural chain unless they say otherwise; changes in a name come on top.
UniProt C7C422: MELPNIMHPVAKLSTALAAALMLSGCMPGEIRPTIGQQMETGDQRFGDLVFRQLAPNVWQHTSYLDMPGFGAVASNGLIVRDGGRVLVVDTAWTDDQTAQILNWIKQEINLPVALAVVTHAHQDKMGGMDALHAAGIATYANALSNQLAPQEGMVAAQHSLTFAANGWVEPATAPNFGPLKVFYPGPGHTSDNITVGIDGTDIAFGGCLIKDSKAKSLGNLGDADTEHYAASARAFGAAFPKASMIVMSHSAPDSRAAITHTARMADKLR

Target: Metallo-beta-lactamase type 2 (Klebsiella pneumoniae) (UniProt C7C422)
Experiment: qHTS to identify inhibitors of the New Delhi Metallo-beta-lactamase (NDM): primary screen against the NCATS Gemini Collection; further: % of control where 0% means no effect
Conditions: NDM-1 enzyme, meropenem hydrolysis, absorbance 300 nm; at 38.4 µM (top of the series) unless noted
Summary of the method: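 NDM-1 at 2 nM final in 50 mM HEPES pH 7.0, 1 uM ZnSO4, 0.01% Tween20, preincubated >30 min with compound. Meropenem 50 uM final added; absorbance at 300 nm after 30 min.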

Activity % (negative = inhibition), inactive:
Cc1cccc(Nc2nc(N)nc(CN3CC[C@@](O)(C4CCC4)[C@H](C)C3)n2)c1 15.3%
COc1ccc(S(=O)(=O)Nc2ccc3n(c2=O)C[C@H]2C[C@@H]3CN(C(=O)Nc3cc(OC)cc(OC)c3)C2)cc1 1.93%
CCN(CC)C(=O)c1cc2c(s1)CCC(C(=O)O)C2 (stereo unspecified) 25.1%
Cc1cccc(OCc2c(C(=O)N3CCCC3c3nncn3CCN(C)C)noc2C)c1 (stereo unspecified) -0.226%
O=C1CCCN1CCCN1C(=O)[C@H]2CN(Cc3ccc(Cl)cc3)C[C@H]2C1=O -6.58%
O=C1c2ccccc2CN1C1CCN(Cc2cccc3ccccc23)CC1 -1.67%
CC(C)(C)CC(=O)NC[C@H]1OC[C@@H](NC2CCCC2)[C@@H]1O -1.93% [at 57.5 µM]
CCS(=O)(=O)N1C[C@@H]2CN(Cc3ncc[nH]3)C[C@]2(C(=O)O)C1 -7.35%
Cn1cccc1C(=O)N1CC(CO)C2(CCNCC2)C1 (stereo unspecified) 31.5%
CN1CCC(C(=O)N2CCC3(CC2)CN(C(=O)c2ccc(Cl)cc2)CCO3)CC1 -11.6%
COC(=O)NCCNC(=O)c1cccc(-c2ccc(SC)cc2)c1 6.72%
COc1ccccc1N1CCN(C(=O)C[C@@H]2C[C@@H](C(C)C)[C@H](CO)C=C2C)CC1 5.32% [at 57.5 µM]
CN1CC(=O)N(C2CCCC2)Cc2c(NC3CCCC3)ncnc21 0.231% [at 57.5 µM]
CCNc1ncc(C(=O)NC2CC(c3nnc(CO)n3CC)C2)cn1 (stereo unspecified) 5.26%
COc1cccc(CN2C[C@@H]3C(C(=O)O)[C@@H]3C2)c1OCCn1ccnc1 (stereo partly specified) -2.15%
COc1ccc([C@H]2CN(C(=O)C3(c4ccc(F)cc4)CC3)C[C@@H]2N)cc1 -16.7%
COCCn1c(C)cnc1C1CCN(S(=O)(=O)c2ccc(C#N)cc2)C1 (stereo unspecified) -6.01%
O=c1c2nc(Nc3cccnc3)ccc2ncn1-c1ccc(F)cc1F 17.4% [at 57.5 µM]
O=C1CCCCC(C(=O)N2CCCCC2)N1 (stereo unspecified) -11.9%
COC(=O)[C@@H](Cc1cccnc1)NC(=O)[C@@H]1CN(C(=O)c2cccc(F)c2)CCN1C(=O)C1CCCCC1 -0.572%
COc1ccc(CCN2CC(NC(=O)Cn3ccc(C)n3)CC2=O)cc1 (stereo unspecified) -4.85%
Cc1nn(CCO)cc1CN1CCC2(CC1)C(C(=O)O)CC(=O)N2C (stereo unspecified) -1.69%
N#Cc1ccc(CN2CCC3(CC(c4cccc(C(F)(F)F)c4)=NO3)C2)cc1 (stereo unspecified) -0.427%
Cc1ccc(OCC(=O)NCc2c(C)ncc3c2CCNC3)cc1C 22.7%
O=C(Nc1ccc(=O)n2c1[C@@H]1C[C@@H](CN(C(=O)COc3ccccc3)C1)C2)c1ccccc1 -0.063%
Cc1cnc(CCNC(=O)c2ccc(C#N)cc2)n1C1CC1 13.1%
COc1ccccc1OC1(C(=O)O)CCN(c2ncnc(C)c2C)CC1 -5.13%
CN(Cc1ccc2nsnc2c1)Cc1cc2n(n1)CCCNC2 -6.61%
O=C1CCC2(CNC(=O)c3cc(F)ccc3F)CCC=C2N1 (stereo unspecified) -4.1%
O=C(c1ccc(Cl)cc1)N1CC2(CCN(CC3CC3)CC2)Cc2ccccc21 16.5%
COc1cc([C@@H]2c3cc4c(cc3[C@H](O)[C@@H](CO)[C@@H]2C(=O)NC(C)C)OCO4)cc(OC)c1OC 6.22%
CCc1cn(C[C@@H](C(=O)O)N(CC)CC)c(=O)[nH]c1=O 3.66% [at 77.1 µM]
Cc1cc(C)cc(N2CCN(c3cc(C4CC(O)C4)ncn3)CC2=O)c1 (stereo unspecified) 7.03%
CCn1cc(S(=O)(=O)N2CCOc3ccc(CN4CCCCCC4)cc3C2)cn1 5.62%
Cc1ccc2oc([C@H]3CCN(C(=O)C4CC4)C3)nc2c1 3.81% [at 77.1 µM]
COC[C@@H]1CCCN1Cc1cc2cc3c(cc2[nH]c1=O)OCO3 18.3%
COc1cccc(CCC(=O)N2CCCC(CN3CCCC3)CC2)c1 (stereo unspecified) 14.9%
COc1ccc(F)c(CN2CCC3(CCC(=O)N(CCO)C3)CC2)c1 -2.65%
OCC1(Cc2ccc(F)cc2F)CCCN(c2cnc3ccccc3n2)C1 (stereo unspecified) -0.375%
Cc1nnc(CNC(=O)C2CCC(=O)N(CCN3CCOCC3)C2)o1 (stereo unspecified) 2.8%
COc1ccc(-c2nc3c(c(=O)[nH]2)CCN(S(=O)(=O)C2CC2)C3)cc1 10.7%
O=C(Nc1ccc(N2CCC(NC3Cc4ccccc4C3)CC2)cc1)C1CCCC1 8.01%
OC[C@@H]1CN(Cc2cccnc2)C[C@H]1c1ccccn1 10%
Cc1ccc(CNC(=O)N(C)CC2CCOCC2)cc1 -0.782%
Cc1nc2ccc(C(=O)NC(C(=O)O)c3c(C)n[nH]c3C)cc2[nH]1 (stereo unspecified) 10.8%
O=C(N[C@@H]1CCOC[C@H]1OCCO)c1ccc2c(c1)ncn2CCO 2%
O=C(N[C@@H]1CN(Cc2ccccc2)C[C@H]1CO)c1cn[nH]c1 17.1%
Cc1noc(C)c1CC(=O)N1CCCn2cc(-c3ccccc3F)nc21 3.8%
Cc1ccc(NC(=O)N2CCN(c3nnnn3-c3ccccc3)CC2)cc1 0.0539%
CC[C@H]1CN(C(=O)C(C)(C)C)CC[C@H]1CC(=O)NCc1cccnc1 2.92% [at 57.5 µM]
COc1ccccc1-c1ccc(C(=O)N2CCC(C(=O)Nc3ccccc3Cl)CC2)cc1 -5.41%
O=C(Cc1ccc(F)cc1)NCc1nnc2ccc(-c3ccc(Cl)cc3)nn12 33.5%
Cc1nnc2n1CCC(N(C)C(=O)NC1CCCCC1)CC2 (stereo unspecified) 8.88%
O=C1CO[C@H]2CN(Cc3ccc4c(c3)OCO4)C[C@H]2N1Cc1ccc(F)cc1 2.35% [at 57.5 µM]
Cn1nc2n(c1=O)CCN(C(=O)c1ccc(F)cc1F)CC2 -1.76%
O=C1NC2(CCN([S+](=O)([O-])c3cccc(C(F)(F)F)c3)C2)COc2ccccc21 (stereo unspecified) 3.97%
COCc1nc(NCCc2nc(-c3ccccn3)no2)c2cnn(C)c2n1 5.88%
O=C(NCc1ccc(Cl)nc1)c1cc2cccnn2n1 27.8% [at 57.5 µM]
COCC1CN(C2CCC2)CC12CCN(C(=O)c1ccsc1)CC2 (stereo unspecified) -3.61%
COc1ccc(-c2[nH]nc3ncc(C(=O)N4CCC(c5ccccc5)CC4)nc23)c(C)c1 5.82% [at 57.5 µM]
COc1cccc(-c2ccc(C(=O)N3CCC(NC(=O)c4ccc(C(F)(F)F)cc4)CC3)cc2)c1 2.93%
COc1ccc(NC(=O)N2C[C@@H]3C[C@H](C2)c2c(NC(=O)C4CCCCC4)ccc(=O)n2C3)cc1 3.88%
CCOc1ccccc1CN1CCC[C@H]1C(=O)N1CCCCCCNC(=O)CC1 9.08%
O=C(CC1CC1)N1C[C@H]2OC(=O)N(CCc3cccc(Cl)c3)[C@H]2C1 4.36%
O=C(c1n[nH]c2ccccc12)N1CCC(N2C(=O)C(OCC3CC3)C23CCCCC3)CC1 (stereo unspecified) 23.8%
CNC(=O)[C@@H]1CN(C(=O)NCc2ccc(C)cc2)C[C@H]1c1nc(C)no1 -10.1%
Cc1cncc(C(=O)NC2CCN(c3ccc(=O)n(C)n3)CC2)c1 5.24%
O=C(Nc1ccc2ncnc(N3CCCCC3)c2c1)C1CCCCC1 2.61%
COc1ccccc1CNC(=O)CN1CCCC(CO)(CC2CC2)C1 (stereo unspecified) -1.67%
NCc1ccc(Oc2ccc(F)c(Cl)c2)cc1 -3.16% [at 57.5 µM]
Cc1noc(C)c1C(=O)N1CCN(S(=O)(=O)c2ccc(Cl)nc2)C(=O)C1 4.38%
Cc1[nH]c(-c2ccccc2)nc1C(=O)N1CCCC[C@H](N(C)C)C1 1.85%
CC(C)CN(CC1CN(C(=O)c2ccccc2)CCO1)C(=O)c1cccc2ccccc12 (stereo unspecified) -5.47%
Cc1noc2c(NCCCn3ccnc3)cc(-c3ccccn3)nc12 47% [at 57.5 µM]
COCCN1CC(C(=O)NCc2sc3ccccc3c2Cl)CCC1=O (stereo unspecified) 9.65%
CN1CCN(S(=O)(=O)c2cc(C(=O)O)cc(-c3ccncc3)c2)CC1 1.21%
Cc1nn(-c2ccccc2)c2c1C(C(C)C)N(C1CN([S+](C)(=O)[O-])C1)C2=O (stereo unspecified) -10.6%
Cn1ccnc1C(O)c1cc2n(n1)CCN(S(=O)(=O)C1CC1)C2 (stereo unspecified) 19%
COc1ccc(C2(C(=O)N3CCCCCC3c3nc(C4CC4)no3)CC2)cc1 (stereo unspecified) 1.06%
CCN(Cc1ccccc1)C(=O)CCC[C@H]1NC[C@@H]2CC1CN(Cc1ccccc1)C2 -1.84%
O=C(CCc1cc2n(n1)CCCN(C(=O)CCc1ccsc1)C2)NC1CC1 20.8%
C[C@@H]1CN(c2nc(-c3ccccc3)no2)CC[C@@]1(O)C1CCC1 76%
O=C(CCc1ccsc1)N1CCC2(CCCN(Cc3cccnc3)C2=O)C1 (stereo unspecified) -2.26%
O=c1cc(N2CCOCC2)oc2c(NCc3ccc(F)cc3)nccc12 16.3% [at 57.5 µM]
O=C(NC1CC1)[C@@H]1C[C@H](Oc2ccccc2)CN1C(=O)C1CCC1 0.0788%
Cc1cnc(CCNC(=O)C2CC=CC2)n1C1CC1 9.89%

Structures listed so far containing a thiophene ring, fused or not, in the order listed:
Activity % (negative = inhibition), inactive:
CCN(CC)C(=O)c1cc2c(s1)CCC(C(=O)O)C2 (stereo unspecified) 25.1%
COCC1CN(C2CCC2)CC12CCN(C(=O)c1ccsc1)CC2 (stereo unspecified) -3.61%
COCCN1CC(C(=O)NCc2sc3ccccc3c2Cl)CCC1=O (stereo unspecified) 9.65%
O=C(CCc1cc2n(n1)CCCN(C(=O)CCc1ccsc1)C2)NC1CC1 20.8%
O=C(CCc1ccsc1)N1CCC2(CCCN(Cc3cccnc3)C2=O)C1 (stereo unspecified) -2.26%
